Data as given in the supplement of paper PMC12889115.
This is one part of the list. Values are raw readings; no control value is given beside them.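 Primary screen: polymyxin B was added at a level permeabilizing Salmonella outer membranes while sparing inner membranes. DMSO wells, both with and without polymyxin B, established maximum growth. Plate-to-plate variation meant each plate was ranked on its own, and the lowest-OD600 compounds were selected as hits.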

Tested on: Salmonella enterica serovar Typhimurium SL1344
Assay: bacterial growth OD600 after 18 h with compound and polymyxin B; higher = more bacterial growth (less inhibition)
Conditions: 50 µM, Mueller-Hinton broth

## O=C(c1cccs1)C1CCCN(C(=O)COc2ccc(N3CCN(c4ccccn4)CC3)nn2)C1 (stereo unspecified)
Polymyxin B 0.75 µg/mL
  bacterial growth OD600: 0.768

## CC(=O)c1cccc(CN2CCC(CCC(=O)N3CCN(c4ccccc4)CC3)CC2)c1
Polymyxin B 1 µg/mL
  bacterial growth OD600: 0.889

## CCCCn1c(CN(C)CCc2ccc(OC)c(OC)c2)cnc1S(=O)(=O)CC
Polymyxin B 1 µg/mL
  bacterial growth OD600: 1.08

## Cc1cccc(C(=O)N2CCCC(C(=O)c3ccc(-c4ccccc4)cc3)C2)n1 (stereo unspecified)
Polymyxin B 1 µg/mL
  bacterial growth OD600: 0.006

## COc1cccc(CC2(CCC(=O)NC(c3ccccc3)c3ccc(Cl)cc3)CCC(=O)N2)c1 (stereo unspecified)
Polymyxin B 0.75 µg/mL
  bacterial growth OD600: 0.002

## CN(Cc1cccnc1)CC1(O)CCCN(Cc2ccc(F)cc2)C1=O (stereo unspecified)
Polymyxin B 1 µg/mL
  bacterial growth OD600: 1.03

## O=C(CC1=CCCCC1)N1CCc2[nH]nc(-c3ccccc3F)c2C1
Polymyxin B 0.75 µg/mL
  bacterial growth OD600: 0.645

## COc1ccc(CC2(CCC(=O)NCCc3ccccc3Cl)CCC(=O)N2)c(F)c1 (stereo unspecified)
Polymyxin B 0.75 µg/mL
  bacterial growth OD600: 0.825

## O=C(NCc1ccccc1)C1CC12CCN(C(=O)/C=C/c1ccccc1)CC2 (stereo unspecified)
Polymyxin B 0.75 µg/mL
  bacterial growth OD600: 0.845

## O=C(CC1=CCCCC1)N1CCCC(CNC(=O)C2(c3ccc(Cl)cc3)CC2)C1 (stereo unspecified)
Polymyxin B 0.75 µg/mL
  bacterial growth OD600: 0.601

## CC#CCN1C(=O)NC(CCc2ccccc2)(C2CCN(Cc3ccco3)CC2)C1=O (stereo unspecified)
Polymyxin B 0.75 µg/mL
  bacterial growth OD600: 0.768

## COc1ccc(OC)c(-c2cc(Cl)c3c(c2)CC(CNC(=O)CSc2ccccn2)O3)c1 (stereo unspecified)
Polymyxin B 0.75 µg/mL
  bacterial growth OD600: 0.006

## Cc1cc2nc(N3CCCN(Cc4ccc5ncccc5c4)CC3)nc(C)c2cc1C
Polymyxin B 0.75 µg/mL
  bacterial growth OD600: 0.587

## COc1ccc(CCN2CC(C(=O)N(C)Cc3c(C)n[nH]c3C)CCC2=O)cc1 (stereo unspecified)
Polymyxin B 1 µg/mL
  bacterial growth OD600: 0.875

## O=C(c1ccco1)N1CCCN(Cc2nc(Cc3cccc(C(F)(F)F)c3)no2)CC1
Polymyxin B 1 µg/mL
  bacterial growth OD600: 0.887

## CCCCNc1ccc(C(=O)N2CCCN(c3ncccn3)CC2)cn1
Polymyxin B 1 µg/mL
  bacterial growth OD600: 0.969

## CCOC(=O)C1(CCCc2ccccc2)CCN(Cc2ccccn2)CC1
Polymyxin B 1 µg/mL
  bacterial growth OD600: 0.765

## Cc1cc(C)n(-c2ccc(NC(=O)C3CCCCN3C(=O)c3cc(C)on3)cc2)n1 (stereo unspecified)
Polymyxin B 1 µg/mL
  bacterial growth OD600: 0.896

## CCCNC(=O)[C@H]1C[C@@](CC(C)C)(C(=O)OC)N(C)[C@H]1c1cccnc1
Polymyxin B 0.75 µg/mL
  bacterial growth OD600: 0.821

## CCc1csc(CNC(=O)c2ccc(N(C)Cc3cccs3)nc2)n1
Polymyxin B 0.75 µg/mL
  bacterial growth OD600: 0.913

## CC(=O)c1cccc(OCc2cc(C(=O)N(C)C(C)c3cccs3)n[nH]2)c1 (stereo unspecified)
Polymyxin B 1 µg/mL
  bacterial growth OD600: 0.672

## Cc1ccccc1N1C(=O)CN(C(=O)CCCc2cccs2)CC1C (stereo unspecified)
Polymyxin B 0.75 µg/mL
  bacterial growth OD600: 0.919

## COc1cc(C(=O)N(Cc2cccc(OCCc3cccs3)c2)C2CCCC2)cc(OC)c1OC
Polymyxin B 0.75 µg/mL
  bacterial growth OD600: 0.002

## O=C(c1cn(CCC2CCCCC2)nn1)N1CCN(C(=O)c2ccco2)CC1
Polymyxin B 1 µg/mL
  bacterial growth OD600: 0.808

## CC(C)NC1CCN(c2ccc(C(=O)N3CCCC(O)C3)cc2)CC1 (stereo unspecified)
Polymyxin B 0.75 µg/mL
  bacterial growth OD600: 1.03

## C=CCC(=O)N1CCC2(CCCN(Cc3ccccc3F)C2=O)C1 (stereo unspecified)
Polymyxin B 1 µg/mL
  bacterial growth OD600: 0.963

## CC(C)N(C)Cc1nnnn1CC(=O)N1CCCC(C(=O)c2ccccc2)C1 (stereo unspecified)
Polymyxin B 0.75 µg/mL
  bacterial growth OD600: 0.793

## COC(=O)c1ccc(CN2CCCC(N3CCN(c4ccccc4C)CC3)C2)cc1 (stereo unspecified)
Polymyxin B 1 µg/mL
  bacterial growth OD600: 0.936

## CC(=O)c1ccc(C(=O)N2CCCC(CCC(=O)NCc3ccccc3Cl)C2)s1 (stereo unspecified)
Polymyxin B 1 µg/mL
  bacterial growth OD600: 1.02

## CN(CCc1ccccc1)C(=O)c1nc2sccn2c1CN1CCCC1c1nccs1 (stereo unspecified)
Polymyxin B 1 µg/mL
  bacterial growth OD600: 0.888

## CC1(C)CC(NC(=O)c2cc(COc3ccccc3F)[nH]n2)CCO1 (stereo unspecified)
Polymyxin B 0.75 µg/mL
  bacterial growth OD600: 0.809
